Experimental data: PubChem BioAssay AID1259254 (NCATS, 2017)

- Aim: 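Finding genes that stop cells copying their DNA twice in one cycle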 (primary screen)
- Cells: human HCT116 colorectal cancer cells
- Reagent: single siRNA against human genes
- Timing: 3 days
- Detection: 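Imaged Hoechst DNA stain sorts each cell into a cycle phase by DNA amount; per plate, G2 fraction set to 0% for non-targeting and 100% for GMNN siRNA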
- Reading the numbers: G2 robust z-score and G2 cells, % of GMNN control: higher = more G2 cells, more excess DNA replication; raw share of cells in G2: higher = larger share of cells with G2 DNA content
- Active means: 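An siRNA counts as active if its G2 robust z-score lies at least 5 MADs above the screen median; here such calls match roughly 38% of GMNN control or more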
The whole screen tested about 59,000 reagents; this is an unselected part. In the full data, about 1,550 (2.6%) got an active call. 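G2 share is only a proxy for re-replication; each gene was hit by three separate siRNAs, and active genes were retested.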 The raw values are shown without normalisation. Reagents against one gene are numbered here. The record does not give: the amount of reagent.

gene knocked down	reagent	G2 robust z-score	G2 cells, % of GMNN control	raw share of cells in G2 (%)	Outcome
LRRC47 (GeneID 57470)	1	-1.15	-5.13	3.52	inactive
LRRC47 (GeneID 57470)	2	0.196	4.35	5.89	inactive
LRRC47 (GeneID 57470)	3	-0.493	-0.501	4.04	inactive
MOGS (GeneID 7841)	1	-0.293	0.909	5.98	inactive
MOGS (GeneID 7841)	2	2.31	19.2	10.8	inactive
MOGS (GeneID 7841)	3	-0.507	-0.597	4.04	inactive
FBXO31 (GeneID 79791)	1	-0.11	2.2	5.36	inactive
FBXO31 (GeneID 79791)	2	0.345	5.39	6.66	inactive
FBXO31 (GeneID 79791)	3	-0.588	-1.17	2.06	inactive
ZNF534 (GeneID 147658)	1	1.33	12.3	7.96	inactive
ZNF534 (GeneID 147658)	2	-0.0117	2.88	3.8	inactive
ZNF534 (GeneID 147658)	3	0.502	6.5	5.33	inactive
PHLDA1 (GeneID 22822)	1	1.71	15	10.9	inactive
PHLDA1 (GeneID 22822)	2	-0.963	-3.81	2.56	inactive
PHLDA1 (GeneID 22822)	3	1.35	12.5	7.84	inactive
DNAJB13 (GeneID 374407)	1	4.35	33.6	14.6	inactive
DNAJB13 (GeneID 374407)	2	-0.617	-1.37	2.69	inactive
DNAJB13 (GeneID 374407)	3	1.27	11.9	7.71	inactive
PHLDA2 (GeneID 7262)	1	-0.196	1.59	5.84	inactive
PHLDA2 (GeneID 7262)	2	-0.36	0.436	4.07	inactive
PHLDA2 (GeneID 7262)	3	4.92	37.6	16.6	inactive
OSBPL1A (GeneID 114876)	1	-1.21	-5.57	3.09	inactive
OSBPL1A (GeneID 114876)	2	0.157	4.07	6.02	inactive
OSBPL1A (GeneID 114876)	3	1.07	10.5	9.47	inactive
ZSCAN20 (GeneID 7579)	1	-0.638	-1.52	3.02	inactive
ZSCAN20 (GeneID 7579)	2	-0.636	-1.51	5.32	inactive
ZSCAN20 (GeneID 7579)	3	-0.136	2.01	4.18	inactive
MAP2K3 (GeneID 5606)	1	1.6	14.2	10.3	inactive
MAP2K3 (GeneID 5606)	2	-0.0211	2.82	6.36	inactive
MAP2K3 (GeneID 5606)	3	-0.547	-0.88	3.71	inactive
TRIM4 (GeneID 89122)	1	-1.42	-7.05	1.94	inactive
TRIM4 (GeneID 89122)	2	0.401	5.79	6.67	inactive
TRIM4 (GeneID 89122)	3	-0.0635	2.52	6.84	inactive
TGM6 (GeneID 343641)	1	-0.567	-1.02	3.91	inactive
TGM6 (GeneID 343641)	2	-0.442	-0.144	5.84	inactive
TGM6 (GeneID 343641)	3	-0.505	-0.584	4.73	inactive

Part of the list above, showing only “G2 cells, % of GMNN control”.
LRRC47 (GeneID 57470) #2: 4.35
LRRC47 (GeneID 57470) #3: -0.501
MOGS (GeneID 7841) #1: 0.909
MOGS (GeneID 7841) #2: 19.2
MOGS (GeneID 7841) #3: -0.597
FBXO31 (GeneID 79791) #1: 2.2
FBXO31 (GeneID 79791) #2: 5.39
FBXO31 (GeneID 79791) #3: -1.17
ZNF534 (GeneID 147658) #1: 12.3
ZNF534 (GeneID 147658) #2: 2.88
ZNF534 (GeneID 147658) #3: 6.5

The listing continues:
gene knocked down	reagent	G2 robust z-score	G2 cells, % of GMNN control	raw share of cells in G2 (%)	Outcome
APOE (GeneID 348)	1	-0.343	0.552	4.91	inactive
APOE (GeneID 348)	2	-0.212	1.48	5.6	inactive
APOE (GeneID 348)	3	-0.21	1.49	4.55	inactive
LOC107985384 (GeneID 107985384)	1	-0.12	2.12	4.35	inactive
LOC107985384 (GeneID 107985384)	2	-0.337	0.598	3.08	inactive
LOC107985384 (GeneID 107985384)	3	-0.118	2.13	4.41	inactive
TMC6 (GeneID 11322)	1	0.639	7.46	7.91	inactive
TMC6 (GeneID 11322)	2	-0.326	0.672	4.41	inactive
TMC6 (GeneID 11322)	3	-0.574	-1.07	2.77	inactive
ATP6V1H (GeneID 51606)	1	-0.283	0.979	4.18	inactive
ATP6V1H (GeneID 51606)	2	-0.419	0.0199	4.25	inactive
ATP6V1H (GeneID 51606)	3	-0.342	0.561	6.21	inactive
UBE3D (GeneID 90025)	1	0.459	6.2	6.71	inactive
UBE3D (GeneID 90025)	2	5.21	39.7	15.4	active
UBE3D (GeneID 90025)	3	-0.106	2.22	3.63	inactive
COL2A1 (GeneID 1280)	1	-0.5	-0.552	5.04	inactive
COL2A1 (GeneID 1280)	2	-0.545	-0.869	3.77	inactive
COL2A1 (GeneID 1280)	3	-0.39	0.224	3.61	inactive
TMEM138 (GeneID 51524)	1	-0.214	1.46	4.13	inactive
TMEM138 (GeneID 51524)	2	1.31	12.2	9.4	inactive
TMEM138 (GeneID 51524)	3	0.812	8.68	6.06	inactive
HSPA13 (GeneID 6782)	1	-0.687	-1.86	2.72	inactive
HSPA13 (GeneID 6782)	2	-0.873	-3.17	3.36	inactive
HSPA13 (GeneID 6782)	3	0.62	7.33	5.77	inactive
LINC01235 (GeneID 401492)	1	-0.0165	2.85	4.85	inactive
LINC01235 (GeneID 401492)	2	-0.125	2.09	4.34	inactive
LINC01235 (GeneID 401492)	3	0.607	7.24	7.79	inactive
KRTAP3-2 (GeneID 83897)	1	-0.213	1.47	2.85	inactive
KRTAP3-2 (GeneID 83897)	2	-0.456	-0.239	4.03	inactive
KRTAP3-2 (GeneID 83897)	3	0.133	3.91	4.62	inactive
EVC2 (GeneID 132884)	1	-0.352	0.493	4.36	inactive
EVC2 (GeneID 132884)	2	0.62	7.33	5.43	inactive
EVC2 (GeneID 132884)	3	0.455	6.17	4.81	inactive
